For the test, the target named is PTPN13 (human (endogenous in iRPE cells derived from hUCMSCs)) (UniProt Q12923). Nature of the test: co-IP; lysate of iRPE cells overexpressing syntenin1-Flag; antibodies against PTPN13 or FLAG (or normal IgG) on Protein A + G magnetic beads, 4 °C overnight, washed with TBS; Western blotting. In general terms: Immunoblotting shows a protein as a band on a membrane.

Sequences of proteins named here, by UniProt entry; tags and fusion partners are left off.
UniProt Q12923: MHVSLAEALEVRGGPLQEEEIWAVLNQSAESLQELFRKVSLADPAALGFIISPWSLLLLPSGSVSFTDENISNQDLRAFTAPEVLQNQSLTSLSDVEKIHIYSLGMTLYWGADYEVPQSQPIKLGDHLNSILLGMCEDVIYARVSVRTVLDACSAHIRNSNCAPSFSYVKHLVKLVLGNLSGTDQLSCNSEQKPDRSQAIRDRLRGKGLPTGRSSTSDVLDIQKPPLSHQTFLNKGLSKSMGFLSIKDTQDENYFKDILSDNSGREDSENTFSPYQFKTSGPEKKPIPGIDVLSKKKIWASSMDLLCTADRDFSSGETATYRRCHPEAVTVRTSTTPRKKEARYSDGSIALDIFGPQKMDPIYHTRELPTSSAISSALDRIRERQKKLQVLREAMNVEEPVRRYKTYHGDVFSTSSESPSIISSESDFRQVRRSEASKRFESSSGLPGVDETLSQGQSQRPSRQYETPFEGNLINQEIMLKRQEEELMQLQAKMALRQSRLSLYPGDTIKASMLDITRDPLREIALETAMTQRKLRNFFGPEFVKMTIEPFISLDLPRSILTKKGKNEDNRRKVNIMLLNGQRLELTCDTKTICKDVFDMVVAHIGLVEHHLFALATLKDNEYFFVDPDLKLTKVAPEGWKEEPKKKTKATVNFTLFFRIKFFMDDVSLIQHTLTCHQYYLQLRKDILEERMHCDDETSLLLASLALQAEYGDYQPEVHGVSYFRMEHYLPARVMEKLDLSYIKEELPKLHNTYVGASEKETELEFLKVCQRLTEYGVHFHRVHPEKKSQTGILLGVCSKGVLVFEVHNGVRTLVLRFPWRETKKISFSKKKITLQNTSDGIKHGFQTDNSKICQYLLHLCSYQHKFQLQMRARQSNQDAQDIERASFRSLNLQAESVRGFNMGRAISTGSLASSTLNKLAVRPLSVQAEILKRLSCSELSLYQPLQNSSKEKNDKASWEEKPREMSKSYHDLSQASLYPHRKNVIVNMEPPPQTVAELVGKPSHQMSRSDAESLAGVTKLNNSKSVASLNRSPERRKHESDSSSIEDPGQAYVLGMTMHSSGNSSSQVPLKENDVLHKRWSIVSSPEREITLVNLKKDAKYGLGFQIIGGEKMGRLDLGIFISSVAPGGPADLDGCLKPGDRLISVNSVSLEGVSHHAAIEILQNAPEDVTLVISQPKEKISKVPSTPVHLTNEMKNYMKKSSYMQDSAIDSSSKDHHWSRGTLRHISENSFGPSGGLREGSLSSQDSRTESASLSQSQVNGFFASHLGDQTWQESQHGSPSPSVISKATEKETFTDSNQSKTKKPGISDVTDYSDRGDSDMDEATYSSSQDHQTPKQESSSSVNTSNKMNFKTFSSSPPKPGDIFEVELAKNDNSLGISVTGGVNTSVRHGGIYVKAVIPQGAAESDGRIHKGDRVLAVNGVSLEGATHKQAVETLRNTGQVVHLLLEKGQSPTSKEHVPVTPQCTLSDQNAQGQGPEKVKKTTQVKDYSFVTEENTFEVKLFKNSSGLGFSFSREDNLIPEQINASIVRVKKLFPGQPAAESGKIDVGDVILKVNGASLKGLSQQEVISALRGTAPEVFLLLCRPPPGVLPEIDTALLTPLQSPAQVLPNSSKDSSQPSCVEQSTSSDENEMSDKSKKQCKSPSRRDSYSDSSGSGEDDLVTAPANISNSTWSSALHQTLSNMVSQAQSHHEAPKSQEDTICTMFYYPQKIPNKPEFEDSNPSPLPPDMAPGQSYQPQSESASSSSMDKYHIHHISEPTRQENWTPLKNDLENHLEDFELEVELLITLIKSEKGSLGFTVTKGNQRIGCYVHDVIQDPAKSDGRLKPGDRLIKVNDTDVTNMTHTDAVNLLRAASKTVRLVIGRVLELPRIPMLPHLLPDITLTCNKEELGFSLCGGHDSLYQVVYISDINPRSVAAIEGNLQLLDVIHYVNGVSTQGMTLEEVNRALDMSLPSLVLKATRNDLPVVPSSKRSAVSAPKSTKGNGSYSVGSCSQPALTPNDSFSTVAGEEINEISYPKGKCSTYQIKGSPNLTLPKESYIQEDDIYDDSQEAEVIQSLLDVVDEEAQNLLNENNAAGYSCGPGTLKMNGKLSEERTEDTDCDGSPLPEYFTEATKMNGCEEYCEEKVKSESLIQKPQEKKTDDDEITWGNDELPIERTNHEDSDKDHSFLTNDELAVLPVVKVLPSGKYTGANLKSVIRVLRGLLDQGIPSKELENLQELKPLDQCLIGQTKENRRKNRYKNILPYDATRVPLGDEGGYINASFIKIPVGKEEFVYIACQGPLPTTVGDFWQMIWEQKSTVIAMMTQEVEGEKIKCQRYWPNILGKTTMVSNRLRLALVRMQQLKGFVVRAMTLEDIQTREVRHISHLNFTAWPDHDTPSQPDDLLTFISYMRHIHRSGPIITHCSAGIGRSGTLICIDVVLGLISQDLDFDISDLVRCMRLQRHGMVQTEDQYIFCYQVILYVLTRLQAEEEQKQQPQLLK
UniProt O00560: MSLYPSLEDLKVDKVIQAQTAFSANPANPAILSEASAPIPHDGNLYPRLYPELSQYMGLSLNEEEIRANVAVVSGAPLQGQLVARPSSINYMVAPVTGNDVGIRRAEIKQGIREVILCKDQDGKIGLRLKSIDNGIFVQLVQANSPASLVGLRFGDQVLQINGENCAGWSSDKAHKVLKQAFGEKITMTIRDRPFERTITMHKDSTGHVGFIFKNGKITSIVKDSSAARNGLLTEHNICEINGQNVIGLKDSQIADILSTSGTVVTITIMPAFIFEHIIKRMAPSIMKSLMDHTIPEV

The source of these data is publication PMC9468174.

Results are given in words; binding and its absence hold for the method and conditions named. In cells and extracts the contact can be indirect. Some binding calls cover weakened binding; strength is not graded here.

“syntenin1-Flag (from UniProt O00560 1-298)”: the binding entry is on record as “binds”.
